PubChem BioAssay AID540256 (National Center for Advancing Translational Sciences (NCATS), 2011)
About 3,700 (1.2%) of roughly 300,000 compounds were called active. The inconclusive results got no clear call from the source; some entries with a clear call stand among them for comparison. Calls come from the whole dose curve; tested in HEK293 cells. Potencies beside an inconclusive call are fits to weak or partial responses and may not hold up.

experiment: qHTS for Inhibitors of binding or entry into cells for Lassa Virus; conditions: Lassa virus pseudotype entry inhibition, cell reporter; activity change, negative = inhibition: at 37.9 µM (top of the series) unless noted; note: nearly all actives have a fitted effect of over 50% in size
% is set by controls: 0 for no effect and ±100 for the full control effect; potency is the fitted concentration of half-maximal effect.

SMILES | activity change, negative = inhibition | Potency
CC12CCC(=O)N1C(C(=O)Nc1ccc(S(=O)(=O)N3CCCCC3)cc1)CS2 (centres undefined) | inactive: 1.72% | –
CC1CCN(S(=O)(=O)c2cccc(C(=O)NCc3cccs3)c2)CC1 | – | inconclusive: 4.47 µM [inhibitor, partial curve]
O=C(CNc1cccc(F)c1)Nc1cccc(S(=O)(=O)N2CCCCC2)c1 | inactive: -9.41% | –
Cc1ccc(Nc2nc(N)nc(CSc3ncccn3)n2)cc1 | inactive: -17.9% | –
COCCn1c(SC(C)C(=O)Nc2ncc(Cl)cc2Cl)nc2ccccc21 (centres undefined) | – | active: 1.41 µM
Cc1ccc(Cn2c(C(=O)Nc3cccc(Cl)c3)cc3sccc32)cc1 | inactive: -9.07% [at 46.1 µM] | –
Cc1ccc(C2c3c(-c4ccccc4O)n[nH]c3C(=O)N2CCCO)cc1 (centres undefined) | – | inconclusive: 2.51 µM [inhibitor, full curve]
CN(C(=O)CSc1nc(-c2ccccc2)cs1)C1CCS(=O)(=O)C1 (centres undefined) | inactive: 4.18% | –
COC(=O)C1C(c2ccccc2)C(C(=O)OCc2ccco2)C1c1ccccc1 (centres undefined) | – | inconclusive: 23.1 µM [inhibitor, partial curve, poor fit]
CCc1cc(C)cc(OCCNC(=O)c2cncc(Br)c2)c1 | inactive: -9.84% | –
CCOc1ccc(NC(=O)C2Cc3ccccc3CN2S(=O)(=O)CC)cc1 (centres undefined) | inactive: -10.2% | –
O=C(Nc1ccc(N2CCOCC2)cc1)c1cc(-n2cnnc2)ccc1Cl | inactive: -9.16% | –
FC(F)(F)c1nnc(-c2ccccc2)nc1Sc1ccc(Cl)cc1 | – | inconclusive: 18.3 µM [inhibitor, partial curve, poor fit]
CSc1ncc(Cl)c(C(=O)Nc2ccc(S(=O)(=O)N3CCC(C)CC3)cc2)n1 | – | inconclusive: 10 µM [inhibitor, single point]
CCOC(=O)N1CCN(C(=O)CCSc2ccc(Cl)cc2)CC1 | – | inconclusive: 32.6 µM [inhibitor, partial curve, poor fit]
C=Cc1ccc(Cn2c(C(=O)O)c(CNCc3cccs3)c3ccc(C)cc32)cc1 | – | inconclusive: 35.5 µM [inhibitor, single point]
O=C(ONC1=NCCCCC1)c1ccc(Cl)cc1 | – | inconclusive: 15.8 µM [inhibitor, single point]
COc1ccc(CNC(=O)CCc2nnc3ccc(NCCCN4CCCC4=O)nn23)cc1 | – | inconclusive: 1.12 µM [activator, partial curve, poor fit]
Cn1c(SCc2ccc(F)cc2)nc2c([nH]c3ccccc32)c1=O | – | inconclusive: 5.62 µM [inhibitor, single point]
CN(C)c1ccc(N=Cc2cccn2C)cc1 | – | active: 6.31 µM
CCOc1ccc(NC(=O)c2cc3c(-c4ccccc4F)nn(C)c3s2)cc1 | – | inconclusive: 20 µM [inhibitor, single point]
CN(C)CCCN(C(=O)c1ccc(S(=O)(=O)N(C)Cc2ccccc2)cc1)c1nc2c(F)cccc2s1 | – | inconclusive: 35.5 µM [inhibitor, single point]
Cc1onc(-c2c(F)cccc2Cl)c1C(=O)c1ccccc1O | – | inconclusive: 20 µM [inhibitor, single point]

Looked up above.
Entry for CC1CCN(S(=O)(=O)c2cccc(C(=O)NCc3cccs3)c2)CC1 under Potency: inconclusive: 4.47 µM [inhibitor, partial curve]
Entry for CSc1ncc(Cl)c(C(=O)Nc2ccc(S(=O)(=O)N3CCC(C)CC3)cc2)n1 under Potency: inconclusive: 10 µM [inhibitor, single point]
Entry for COC(=O)C1C(c2ccccc2)C(C(=O)OCc2ccco2)C1c1ccccc1 (centres undefined) under Potency: inconclusive: 23.1 µM [inhibitor, partial curve, poor fit]
Entry for Cc1ccc(Cn2c(C(=O)Nc3cccc(Cl)c3)cc3sccc32)cc1 under activity change, negative = inhibition: inactive: -9.07% [at 46.1 µM]

Remaining list, next part.

SMILES | activity change, negative = inhibition | Potency
COc1cc(NC(=O)c2ccc(CNc3c(N4CCCC4)c(=O)c3=O)cc2)cc(OC)c1OC | – | inconclusive: 7.94 µM [activator, partial curve, poor fit]
O=c1[nH]c(=O)n(-c2cccc3ccccc23)c(O)c1C=NCc1ccc2c(c1)OCO2 | inactive: 15.3% | –
CC(=O)C1=C(C)NC(SCC(=O)c2ccc(Cl)cc2Cl)=C(C#N)C1c1ccco1 (centres undefined) | – | inconclusive: 32.6 µM [inhibitor, partial curve, poor fit]
CN1N=C2c3ccccc3CCC2C1c1ccc(F)cc1 (centres undefined) | – | inconclusive: 2.82 µM [activator, single point]
COc1ccnc(CSC(N)=Nc2cccc(C(F)(F)F)c2)c1 | inactive: 2.91% | –
COc1cccc(N/N=C(\C#N)S(=O)(=O)C(C)(C)C)c1 | inactive: -0.405% [at 46.1 µM] | –
CC(=O)c1ccc(NS(=O)(=O)c2cc(-c3cnc(C4CC4)o3)ccc2C)cc1 | – | inactive
O=C(N/N=C/c1ccc[nH]1)c1ccc(O)cc1 | – | inconclusive: 6.31 µM [inhibitor, partial curve, poor fit]
CCn1c(SCc2nc3ccccc3s2)nnc1-c1cccs1 | – | inconclusive: 0.73 µM [activator, full curve, poor fit]
CCN1CCC2(CC1)N=C(c1ccc(F)cc1)C(=S)N2 | inactive: 17.8% [at 46.1 µM] | –
COC(=O)c1ccc(COC(=O)c2ccc(SC)cc2OC)cc1 | inactive: -0.106% | –
COc1ccc(C(=O)CC(=O)C(=O)Nc2ccc(OC)c(Cl)c2)cc1 | inactive: 0.493% | –
CCOC(=O)N1CCN(C(=O)CSc2nnc(-c3ccccc3OC)o2)CC1 | inactive: -6.41% | –
CC1(C)CC(=O)c2cnc(NC3CC3)nc2C1 | inactive: 10.3% | –
C=CCN(c1ccccc1)S(=O)(=O)c1cccc(C(=O)NNC(=O)c2ccccc2O)c1 | – | inconclusive: 15.8 µM [inhibitor, partial curve, poor fit]
CCOC(=O)c1ccc(NC(=O)c2c(NCc3cccs3)sc3c2CCCCC3)cc1 | – | inconclusive: 35.5 µM [inhibitor, single point]
COc1ccc(CC(=O)OCC(=O)Nc2ccc3[nH]c(=O)[nH]c3c2)cc1 | – | inconclusive: 0.447 µM [activator, full curve, poor fit]
CCN1C[C@]2(OC(=O)c3ccccc3NC(C)=O)CCC(OC)C34C5C[C@H]6C(OC)[C@]5(O)[C@](O)(C[C@@H]6OC)C(C[C@@H]32)[C@H]14 (some centres undefined) | – | inconclusive: 17.8 µM [activator, single point]
Cc1cc(N)ccc1-c1cc2ccccc2oc1=O | – | inconclusive: 6.31 µM [inhibitor, single point]
Cc1ccc(C(=O)c2cc3ccccc3o2)cc1 | – | inconclusive: 20 µM [inhibitor, partial curve, poor fit]
CCOc1ccc(S(=O)(=O)N(C)c2ccc(OCC(=O)Nc3nc4ccccc4s3)cc2)cc1 | – | inconclusive: 6.31 µM [inhibitor, full curve]
COC(=O)C1C2C=CC(C3CC23)C1C(=O)OCC(=O)c1ccc(OC)cc1 (centres undefined) | – | inconclusive: 23.1 µM [inhibitor, partial curve, poor fit]
Cc1ccc(-c2cn3c(n2)sc2cc(C(=O)NCCCN4CCCCC4)ccc23)cc1 | inactive: 7.77% [at 46.1 µM] | –

SMILES | activity change, negative = inhibition | Potency
COc1ccc(C(=O)Nc2cc(-c3cccc(C)c3)nn2-c2ccccc2)cc1 | inactive: 20% [at 46.1 µM] | –
COc1cc(SC)ccc1C(=O)NCCOc1ccc(Cl)cc1 | inactive: 0.328% | –
CC(C)(C)OC(=O)N1CCC(c2c(C(=O)NCc3ccc(F)cc3)cnn2-c2ccc(F)cc2)CC1 | – | inconclusive: 1.78 µM [inhibitor, full curve, poor fit]
Cc1cc(NC(=O)COC(=O)C2CC(=O)N(c3ccccc3Cl)C2)no1 (centres undefined) | – | inconclusive: 1.58 µM [inhibitor, partial curve, poor fit]
O=C(NC(=S)Nc1ccc(Cl)cn1)c1cccs1 | – | inconclusive: 5.01 µM [activator, single point]
Oc1ccc(-c2csc(Nc3ncccn3)n2)cc1O | – | inconclusive: 6.31 µM [inhibitor, full curve]
COc1ccc(C2=NO[C@@H]3C(=O)N(c4ccc(C)cc4C)C(=O)[C@H]23)cc1OC | inactive: 6.28% | –
CC(=O)c1c(C)[nH]c(C(=O)NCc2cccs2)c1C | – | inconclusive: 35.5 µM [activator, single point]
COC(=O)CC=C[C@@H](C)[C@@H](C=NO[C@H](C)c1cn([C@H](CO)Cc2ccccc2)nn1)NS(=O)(=O)c1ccc(C)cc1 | – | inconclusive: 2.37 µM [activator, single point]
CCSc1nnc(NC(=O)c2ccccn2)s1 | – | inconclusive: 35.5 µM [inhibitor, single point]
COc1ccc(C(=O)C2CCCN(Cc3cnc(C)s3)C2)cc1OC (centres undefined) | inactive: 7.64% | –
CCOc1cc(CNCCSc2nnnn2C)cc(Br)c1OCc1ccc(F)cc1 | – | inconclusive: 14.1 µM [inhibitor, single point]
Cc1ccc(OCCn2cc(C(=O)C3CCCCC3)c3ccccc32)cc1 | – | inconclusive: 10 µM [inhibitor, single point]
O=C(COc1ccc(Cl)cc1)Nc1ncc([N+](=O)[O-])s1 | – | inconclusive: 31.6 µM [inhibitor, single point]
CCOc1cc(C(=S)N2CCOCC2)ccc1OS(=O)(=O)c1ccccc1 | – | inconclusive: 35.5 µM [inhibitor, single point]
Cc1ccc(NC(=O)CN2C(=O)N/C(=C/c3ccc(N4CCOCC4)cc3)C2=O)cc1 | – | inconclusive: 0.126 µM [inhibitor, full curve, poor fit]
CCOC(=O)c1ccc(NC(=O)CC2C(=O)N(c3cccc(OC)c3)C(=O)N2C2CCCCC2)cc1 (centres undefined) | – | inconclusive: 7.94 µM [inhibitor, partial curve, poor fit]
Cc1cc(C)c(S(=O)(=O)N2CCCC(C(=O)NC3CCCC3)C2)c(C)c1 (centres undefined) | inactive: -8.72% | –
O=C(c1ccc(Cl)cc1)N1CCC(C(=O)N2CCCc3ccccc32)CC1 | – | inconclusive: 0.631 µM [activator, full curve, poor fit]
CCCOc1cccc(-c2cc(C(=O)N/N=C/c3ccccn3)c3ccccc3n2)c1 | – | inconclusive: 35.5 µM [inhibitor, partial curve, poor fit]
CCN1CCN(c2cc(C)c3cc(NC(=O)c4cccc(C(F)(F)F)c4)ccc3n2)CC1 | inactive: 0.511% [at 46.1 µM] | –
C/C(N)=C(/C#N)C(=O)COC(=O)c1ccc(C)c(S(=O)(=O)N2CCCCC2)c1 | inactive: -4.53% | –
CCOC(=O)c1c(N)n(-c2ccc(Cl)c(Cl)c2)c2nc3ccccc3nc12 | inactive: 11.4% [at 46.1 µM] | –
